For one assay, the target named is T1, Strep-PRP5 (human, UniProt Q7L014 1-1031).
T1 sequence: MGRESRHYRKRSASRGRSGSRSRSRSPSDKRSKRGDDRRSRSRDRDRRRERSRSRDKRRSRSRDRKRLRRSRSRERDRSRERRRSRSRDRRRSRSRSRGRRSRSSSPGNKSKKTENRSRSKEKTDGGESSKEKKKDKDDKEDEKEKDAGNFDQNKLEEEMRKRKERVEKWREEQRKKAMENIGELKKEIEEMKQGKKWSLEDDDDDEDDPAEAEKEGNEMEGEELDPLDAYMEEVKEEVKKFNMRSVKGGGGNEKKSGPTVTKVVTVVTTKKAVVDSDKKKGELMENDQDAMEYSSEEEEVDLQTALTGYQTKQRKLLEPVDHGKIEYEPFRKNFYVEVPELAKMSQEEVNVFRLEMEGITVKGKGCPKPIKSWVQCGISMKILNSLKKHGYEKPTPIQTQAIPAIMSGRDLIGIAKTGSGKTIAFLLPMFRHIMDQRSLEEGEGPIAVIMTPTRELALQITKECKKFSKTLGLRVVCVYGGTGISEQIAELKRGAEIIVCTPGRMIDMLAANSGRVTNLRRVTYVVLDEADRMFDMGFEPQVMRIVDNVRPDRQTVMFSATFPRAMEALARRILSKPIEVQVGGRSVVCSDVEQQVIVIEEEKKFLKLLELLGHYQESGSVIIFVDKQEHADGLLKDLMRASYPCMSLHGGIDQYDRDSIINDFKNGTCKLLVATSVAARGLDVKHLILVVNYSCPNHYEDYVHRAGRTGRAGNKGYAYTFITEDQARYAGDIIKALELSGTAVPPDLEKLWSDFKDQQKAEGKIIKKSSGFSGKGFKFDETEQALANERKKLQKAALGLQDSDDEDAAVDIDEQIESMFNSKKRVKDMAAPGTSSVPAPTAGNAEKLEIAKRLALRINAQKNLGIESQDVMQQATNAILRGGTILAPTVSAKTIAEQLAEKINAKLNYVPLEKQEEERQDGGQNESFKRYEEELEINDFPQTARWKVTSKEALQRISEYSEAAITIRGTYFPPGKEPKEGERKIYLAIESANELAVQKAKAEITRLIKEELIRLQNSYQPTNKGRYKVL
Kind of assay: pull-down.

Chains of the proteins cited; added tags and fusions are not shown. Lines headed by an entry give the natural chain unless they say otherwise; changes in a name come on top.
UniProt O75533, whole entry, looked up, stated change not applied: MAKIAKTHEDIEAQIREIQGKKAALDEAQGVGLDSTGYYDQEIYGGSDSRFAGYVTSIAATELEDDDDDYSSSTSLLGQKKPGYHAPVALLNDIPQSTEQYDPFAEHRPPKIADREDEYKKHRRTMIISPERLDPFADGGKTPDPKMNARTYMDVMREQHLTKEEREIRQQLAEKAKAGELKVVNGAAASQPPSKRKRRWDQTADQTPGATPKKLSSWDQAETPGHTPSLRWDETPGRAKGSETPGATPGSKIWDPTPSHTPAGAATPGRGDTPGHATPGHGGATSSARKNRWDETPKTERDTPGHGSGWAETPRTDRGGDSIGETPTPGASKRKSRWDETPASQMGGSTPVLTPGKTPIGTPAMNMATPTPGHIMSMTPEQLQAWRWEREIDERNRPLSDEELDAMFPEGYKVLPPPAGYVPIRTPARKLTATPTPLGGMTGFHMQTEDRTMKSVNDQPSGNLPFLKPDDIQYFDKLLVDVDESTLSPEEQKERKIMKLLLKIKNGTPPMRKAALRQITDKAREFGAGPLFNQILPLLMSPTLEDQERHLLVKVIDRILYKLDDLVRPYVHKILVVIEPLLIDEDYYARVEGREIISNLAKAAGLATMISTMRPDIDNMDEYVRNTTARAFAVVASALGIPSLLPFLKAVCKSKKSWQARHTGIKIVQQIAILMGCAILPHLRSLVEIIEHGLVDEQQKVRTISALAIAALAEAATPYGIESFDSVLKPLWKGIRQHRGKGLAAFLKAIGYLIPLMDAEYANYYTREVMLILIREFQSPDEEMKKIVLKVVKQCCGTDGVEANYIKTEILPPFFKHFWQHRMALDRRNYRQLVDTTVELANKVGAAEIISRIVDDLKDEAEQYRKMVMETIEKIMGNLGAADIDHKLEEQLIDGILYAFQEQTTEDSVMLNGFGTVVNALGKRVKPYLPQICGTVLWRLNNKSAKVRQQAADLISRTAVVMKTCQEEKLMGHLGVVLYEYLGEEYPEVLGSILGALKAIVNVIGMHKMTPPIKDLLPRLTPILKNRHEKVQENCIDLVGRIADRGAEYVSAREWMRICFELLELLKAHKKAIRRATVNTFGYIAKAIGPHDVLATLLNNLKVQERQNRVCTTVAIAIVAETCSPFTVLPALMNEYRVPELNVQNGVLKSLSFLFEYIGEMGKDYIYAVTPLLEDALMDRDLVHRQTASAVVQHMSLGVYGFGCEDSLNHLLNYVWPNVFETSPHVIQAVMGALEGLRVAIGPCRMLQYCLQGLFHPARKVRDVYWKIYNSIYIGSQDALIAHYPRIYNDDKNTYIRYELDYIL

In another assay the target is T2, Flag-tagged PRP5 (human) (UniProt Q7L014).
T2 sequence: T1 sequence
Kind of assay: cryo-EM structure.

The target in another assay is T3, SF3A2 (human) (UniProt Q15428).
T3 sequence: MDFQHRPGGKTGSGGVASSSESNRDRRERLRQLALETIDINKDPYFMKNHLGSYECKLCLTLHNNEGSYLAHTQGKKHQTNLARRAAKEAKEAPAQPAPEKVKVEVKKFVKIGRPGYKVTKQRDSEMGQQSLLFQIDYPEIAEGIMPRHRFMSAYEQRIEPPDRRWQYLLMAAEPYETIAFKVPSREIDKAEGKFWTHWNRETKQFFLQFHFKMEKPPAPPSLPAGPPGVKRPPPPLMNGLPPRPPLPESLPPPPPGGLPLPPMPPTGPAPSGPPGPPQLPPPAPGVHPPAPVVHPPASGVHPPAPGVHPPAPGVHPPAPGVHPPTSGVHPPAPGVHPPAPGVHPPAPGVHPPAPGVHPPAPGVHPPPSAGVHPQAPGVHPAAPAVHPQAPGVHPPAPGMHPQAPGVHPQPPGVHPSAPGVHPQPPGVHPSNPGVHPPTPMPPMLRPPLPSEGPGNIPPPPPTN
Kind of assay: cryo-EM structure.

In another assay the target is T4, SF1 (human) (UniProt Q15637).
T4 sequence: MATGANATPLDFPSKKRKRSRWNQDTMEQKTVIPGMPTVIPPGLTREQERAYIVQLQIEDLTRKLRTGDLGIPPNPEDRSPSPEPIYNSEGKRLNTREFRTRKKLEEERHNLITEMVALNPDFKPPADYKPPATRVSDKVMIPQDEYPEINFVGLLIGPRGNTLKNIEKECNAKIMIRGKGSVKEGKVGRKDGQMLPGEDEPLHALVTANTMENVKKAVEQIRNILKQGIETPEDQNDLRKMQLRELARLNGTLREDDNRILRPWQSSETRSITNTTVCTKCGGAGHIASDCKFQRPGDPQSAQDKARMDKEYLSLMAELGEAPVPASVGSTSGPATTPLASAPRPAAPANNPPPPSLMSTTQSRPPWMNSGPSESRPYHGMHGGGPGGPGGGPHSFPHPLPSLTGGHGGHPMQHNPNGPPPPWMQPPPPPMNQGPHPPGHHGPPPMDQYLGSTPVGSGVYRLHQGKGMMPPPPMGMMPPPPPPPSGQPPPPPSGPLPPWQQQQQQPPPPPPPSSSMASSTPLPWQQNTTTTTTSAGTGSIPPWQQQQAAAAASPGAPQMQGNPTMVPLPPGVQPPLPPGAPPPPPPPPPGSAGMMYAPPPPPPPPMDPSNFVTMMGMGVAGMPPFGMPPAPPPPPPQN
Kind of assay: cryo-EM structure.

The values that follow come from publication doi:10.1101/2022.11.07.515429 (bioRxiv, 2022).

Results are given in words; binding and its absence hold for the method and conditions named. For some of these results: In cells and extracts the contact can be indirect. Some binding calls cover weakened binding; strength is not graded here. For some of these results: Where a sequence is shown, tags or fusion partners need not be part of it.

Regarding “Flag-tagged SF3B1 K741E (from UniProt O75533 1-1304)”, in the assay with Strep-PRP5, the binding result is listed as “binds”. On the same count and under the same terms, to “Flag-tagged SF3B1 R625D (from UniProt O75533 1-1304)” belongs “binds”. On to “Flag-tagged SF3B1 E622R (from UniProt O75533 1-1304)”, for which, in the assay with Strep-PRP5, the binding result is listed as “binds”. Still for that read-out and setting: as for “Flag-tagged SF3B1 D781G (from UniProt O75533 1-1304)”, the entry is “binds”; as for “Flag-tagged SF3B1 G742D (from UniProt O75533 1-1304)”, “binds”; as for “Flag-tagged SF3B1 H662D (from UniProt O75533 1-1304)”, “binds”. On the same count and under the same terms, to “Flag-tagged SF3B1 K666E (from UniProt O75533 1-1304)” belongs “binds”.

B1: TAT-SF1 (protein, UniProt O43719 1-755)
chain: MSGTNLDGNDEFDEQLRMQELYGDGKDGDTQTDAGGEPDSLGQQPTDTPYEWDLDKKAWFPKITEDFIATYQANYGFSNDGASSSTANVEDVHARTAEEPPQEKAPEPTDARKKGEKRKAESGWFHVEEDRNTNVYVSGLPPDITVDEFIQLMSKFGIIMRDPQTEEFKVKLYKDNQGNLKGDGLCCYLKRESVELALKLLDEDEIRGYKLHVEVAKFQLKGEYDASKKKKKCKDYKKKLSMQQKQLDWRPERRAGPSRMRHERVVIIKNMFHPMDFEDDPLVLNEIREDLRVECSKFGQIRKLLLFDRHPDGVASVSFRDPEEADYCIQTLDGRWFGGRQITAQAWDGTTDYQVEETSREREERLRGWEAFLNAPEANRGLRRSDSVSASERAGPSRARHFSEHPSTSKMNAQETATGMAFEEPIDEKKFEKTEDGGEFEEGASENNAKESSPEKEAEEGCPEKESEEGCPKRGFEGSCSQKESEEGNPVRGSEEDSPKKESKKKTLKNDCEENGLAKESEDDLNKESEEEVGPTKESEEDDSEKESDEDCSEKQSEDGSEREFEENGLEKDLDEEGSEKELHENVLDKELEENDSENSEFEDDGSEKVLDEEGSEREFDEDSDEKEEEEDTYEKVFDDESDEKEDEEYADEKGLEAADKKAEEGDADEKLFEESDDKEDEDADGKEVEDADEKLFEDDDSNEKLFDEEEDSSEKLFDDSDERGTLGGFGSVEEGPLSTGSSFILSSDDDDDDI
Consider B1, for which, in the assay with Flag-tagged PRP5 (human), the binding entry was “binds”.

B2: DNAJC8 (protein, UniProt O75937 1-253)
chain: MAASGESGTSGGGGSTEEAFMTFYSEVKQIEKRDSVLTSKNQIERLTRPGSSYFNLNPFEVLQIDPEVTDEEIKKRFRQLSILVHPDKNQDDADRAQKAFEAVDKAYKLLLDQEQKKRALDVIQAGKEYVEHTVKERKKQLKKEGKPTIVEEDDPELFKQAVYKQTMKLFAELEIKRKEREAKEMHERKRQREEEIEAQEKAKREREWQKNFEESRDGRVDSWRNFQANTKGKKEKKNRTFLRPPKVKMEQRE
In the case of B2, the binding result with SF3A2 (human) and with SF1 (human) was “binds” in each case.
